# Laboratory results taken from publication PMC10195864 (Communications Chemistry, 2023).
# Experiment: general procedure: Fmoc solid-phase peptide synthesis; Rink Amide MBHA, Biotin Novatag, Biotin PEG Novatag, Sieber Amide; HATU/DIEA
# Conditions: whole synthesis, cyclic, sequence written open
substance,measurement,value
(YYTYT-Tz1),outcome,The cyclic peptide (YYTYT-Tz1) could not be isolated from the synthesis.
